Assay results published in PubChem BioAssay AID330 (DTP/NCI, 2004).
The list does not hold the whole screen: it is rich in T/C values a quarter to a half above the control, in often repeated tests (any T/C) and in doses without a T/C. Other doses and runs of a compound stand elsewhere. T/C gives the treated animals as a percentage of the vehicle group. Some doses have a count of surviving animals in place of a T/C: the source holds a T/C of zero for them, seemingly a mark for toxic or unscored doses. Some doses without a T/C left all or most animals alive at the check, yet need not have been tolerated: the source hardly ever lists a survival T/C far under the control, and the zero likely stands for such cases as well. Counts of survivors are from the toxicity check (mostly the fifth day) where no day follows; animals may have died later. Schedule codes are those of the source, read here as Q, the interval in days (D) or hours (H), X, the number of doses. Where survival is the endpoint, this PubChem deposit counts one and a half times the control or more as active, and values a quarter to a half above the control carry no call in these data; other NCI protocols may use other cut-offs. Some entries were tested several times; their values stand side by side, smallest first. Some T/C values carry the count of animals alive at the toxicity check (mostly the fifth day); where none is given, no animal had died by that day.

System: P388 leukemia ip, CD2F1 mice, survival T/C
Test: NCI In Vivo Anticancer Drug Screen. Data for tumor model P388 Leukemia (intraperitoneal) in CD2F1 (CDF1) mice
Conditions: T/C endpoint: median survival time, higher T/C = longer survival
[1] = dose: 25.0 mg/kg/injection, schedule: Q01DX009 (ip), vehicle: saline
[2] = dose: 50.0 mg/kg/injection, schedule: Q01DX009 (ip), vehicle: saline
[3] = dose: 200.0 mg/kg/injection, schedule: Q01DX005 (ip), vehicle: Klucel (hydroxypropylcellulose) (HPC)
[4] = dose: 200.0 mg/kg/injection, schedule: Q01DX005 (ip), vehicle: saline with Tween-80

Compound: CNCCOC(=O)/C=C1\CC[C@H]2[C@@H]([C@@H](O)C(=O)[C@@H]3[C@]2(C)CC[C@H](O)[C@]3(C)C(=O)OC)[C@H]1C
- survivor count [1]: 2 of 6
- survivor count [2]: 0 of 6

Compound: O=c1[nH]cccc1[N+](=O)[O-]
- T/C [2]: 93, 95, 101, 107 % of control
- T/C (dose: 100.0 mg/kg/injection, schedule: Q01DX009 (ip), vehicle: saline): 91, 99, 103, 106 % of control
- T/C (dose: 200.0 mg/kg/injection, schedule: Q01DX009 (ip), vehicle: saline): 92, 101, 105, 110 % of control
- T/C (dose: 400.0 mg/kg/injection, schedule: Q01DX009 (ip), vehicle: saline): 92, 94 [5 of 6 alive], 100 [5 of 6 alive], 111 % of control

Compound: CCCCCCCCCCCCCCCC[N+]1([O-])CCOCC1
- survivor count (dose: 100.0 mg/kg/injection, schedule: Q01DX009 (ip), vehicle: saline with Tween-80): 5 of 6

Compound: O=S1(c2ccccc2)=NP(N2CC2)(N2CC2)=NP(N2CC2)(N2CC2)=N1 (stereo not given)
- T/C (dose: 150.0 mg/kg/injection, schedule: Q04DX003 (ip), vehicle: saline): 147 % of control

Compound: O=C(O)/C=C(\Br)C(=O)O
- survivor count (dose: 400.0 mg/kg/injection, schedule: Q04DX002 (ip), vehicle: saline): 1 of 6

Compound: NC(=S)NN=C(C1CC1)C1CC1
- survivor count (dose: 25.0 mg/kg/injection, schedule: Q01DX005 (ip), vehicle: Klucel (hydroxypropylcellulose) (HPC)): 0 of 6
- survivor count (dose: 50.0 mg/kg/injection, schedule: Q01DX005 (ip), vehicle: Klucel (hydroxypropylcellulose) (HPC)): 0 of 6
- survivor count (dose: 100.0 mg/kg/injection, schedule: Q01DX005 (ip), vehicle: Klucel (hydroxypropylcellulose) (HPC)): 0 of 6
- survivor count [3]: 0 of 6

Compound: CCC1CCCN(CCc2c(C3(CO)CCC(CO)c4c(CCN5CCCC(CC)C5)c5ccccc5n43)[nH]c3ccccc23)C1 (stereo not given)
- survivor count (dose: 5.59 mg/kg/injection, schedule: Q01DX009 (ip), vehicle: saline with Tween-80): 4 of 4

Compound: CCOC(=O)C1C/C(=N\OS(=O)(=O)c2ccc(C)cc2)c2ccc(OC)c(OC)c2C1 (stereo not given)
- survivor count (dose: 200.0 mg/kg/injection, schedule: Q01DX009 (ip), vehicle: other): 5 of 6

Compound: C/C(=N\N=C(N)N)c1ccccc1
- survivor count [1]: 0 of 6
- survivor count [2]: 0 of 6

Compound: Cn1c(=O)c2c(Nc3ccccc3)ncnc2n(C)c1=O
- survivor count (dose: 140.0 mg/kg/injection, schedule: Q01DX005 (ip), vehicle: saline with Tween-80): 6 of 6

Compound: CC[N+](C)(CC)CCNc1cc2c(c3c(=O)c4ccccc4sc13)CCCC2
- survivor count (dose: 200.0 mg/kg/injection, schedule: Q01DX005 (ip), vehicle: distilled water + Tween-80): 2 of 6

Compound: Cc1cnc(N/N=C/c2c(CO)cnc(C)c2O)s1
- survivor count (dose: 60.0 mg/kg/injection, schedule: Q01DX005 (ip), vehicle: saline with Tween-80): 6 of 6

Compound: Cc1nc2ccccc2c(=O)n1CC(=O)NNC(N)=S
- survivor count (dose: 100.0 mg/kg/injection, schedule: Q04DX002 (ip), vehicle: saline with Tween-80): 3 of 6
- survivor count (dose: 200.0 mg/kg/injection, schedule: Q04DX002 (ip), vehicle: saline with Tween-80): 0 of 6
- survivor count (dose: 400.0 mg/kg/injection, schedule: Q04DX002 (ip), vehicle: saline with Tween-80): 0 of 6

Compound: C=C(C)[C@@H]1CC[C@@H]2C(=CC[C@]3(C)C([C@H](C)CC/C=C(/C)C(=O)O)CC[C@@]23C)[C@@]1(C)CCC(=O)O (stereo not given in full)
- survivor count (dose: 22.5 mg/kg/injection, schedule: Q01DX009 (ip), vehicle: saline + alcohol): 6 of 6
- survivor count (dose: 45.0 mg/kg/injection, schedule: Q01DX009 (ip), vehicle: saline + alcohol): 6 of 6

Compound: CC1=C(C(=O)Nc2ccccc2Cl)C(c2cccc([N+](=O)[O-])c2)C(C(=O)Nc2ccccc2Cl)=C(C)N1
- survivor count (dose: 120.0 mg/kg/injection, schedule: Q01DX005 (ip), vehicle: Klucel (hydroxypropylcellulose) (HPC)): 6 of 6
- survivor count (dose: 240.0 mg/kg/injection, schedule: Q01DX005 (ip), vehicle: Klucel (hydroxypropylcellulose) (HPC)): 4 of 6

Compound: CCOC(=O)C1=CC(C)(C)OC1=O
- survivor count (dose: 480.0 mg/kg/injection, schedule: Q01DX005 (ip), vehicle: saline with Tween-80): 1 of 6

Compound: CCCCN(CCCC)CC(CN(CC)CC)N(CC)C(=O)Nc1ccccc1 (stereo not given)
- survivor count (dose: 100.0 mg/kg/injection, schedule: Q01DX005 (ip), vehicle: saline): 2 of 5
- survivor count (dose: 200.0 mg/kg/injection, schedule: Q01DX005 (ip), vehicle: saline): 0 of 5

Compound: CC1=NOC(=O)/C1=C/c1ccccc1C
- survivor count [4]: 0 of 6

Compound: CN(CCC1(C)C(=O)CCc2ccccc21)Cc1ccccc1 (stereo not given)
- survivor count (dose: 100.0 mg/kg/injection, schedule: Q01DX005 (ip), vehicle: saline with Tween-80): 0 of 5
- survivor count [4]: 0 of 5

Compound: CC(NNC(=S)N1CCC(c2ccccc2)CC1)c1ccc2ccccc2n1 (stereo not given)
- survivor count [3]: 3 of 5

Compound: O=C1NC(=O)NC(C(=O)O)N1
- survivor count (dose: 400.0 mg/kg/injection, schedule: Q01DX009 (ip), vehicle: Klucel (hydroxypropylcellulose) (HPC)): 1 of 6
